# Assay results taken from the supplement of paper PMC8728848.
# The list shows a part of the results.
# B1: RbmA (Vibrio cholerae), A0A2H4NFB8 (protein)
# chain: MSNFKGSIMNKRHYYLASCLALLFSTASYAEVDCELQPVIEANLSLNQNQLASNGGYISSQLGIRNESCETVKFKYWLSIKGPEGIYFPAKAVVGVDTAQQESDALTDGRMLNVTRGFWVPEYMADGKYTVSLQVVAENGEVFKANQEFVKGGDLNSLPELNGLTIDIKNQFGINSVESTGGFVPFTIDLNNGREGEAKVEFWMTAVGPDGLIIPVHSREKWMIIAGNTFSKVRGINFDKSYPAGEYTINAQVVDIVSGERVEQLMTVVKK
# Columns and labels:
# Assay in all cases: glycan array binding signal (z-score within array); higher = stronger binding
# Settings in all cases: glycan notation: IUPAC condensed, linker removed
# [1] = target: GlcNAc(b1-3)Gal(b1-4)GlcNAc(b1-3)Gal(b1-4)GlcNAc(b1-3)Gal(b1-4)GlcNAc(b1-3)Gal(b1-4)GlcNAc(b1-2)[GlcNAc(b1-3)Gal(b1-4)GlcNAc(b1-3)Gal(b1-4)GlcNAc(b1-3)Gal(b1-4)GlcNAc(b1-3)Gal(b1-4)GlcNAc(b1-6)]Man(a1-6)[GlcNAc(b1-3)Gal(b1-4)GlcNAc(b1-3)Gal(b1-4)GlcNAc(b1-3)Gal(b1-4)GlcNAc(b1-3)Gal(b1-4)GlcNAc(b1-2)Man(a1-3)]Man(b1-4)GlcNAc(b1-4)[Fuc(a1-6)]GlcNAc
# How it was run: (§1)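 Glycan array data came from 3228 arrays in the Consortium for Functional Glycomics database, and only arrays with an available protein sequence were kept. Glycan names were put into IUPAC-condensed notation, and columns mapping to the same glycan were averaged. The binding signal is a within-array Z-score, averaged across arrays of one protein sequence run at different concentrations or buffers and across linkers. A negative Z-score can be read as non-binding.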
# [2] = target: GlcNAc(b1-3)Gal(b1-4)GlcNAc(b1-3)Gal(b1-4)GlcNAc(b1-3)GalNAc
# How it was run: as §1
# [3] = target: GlcNAc(b1-3)Gal(b1-4)GlcNAc(b1-3)GalNAc
# How it was run: as §1
# [4] = target: GlcNAc(b1-3)Gal(b1-4)GlcNAc(b1-3)[GlcNAc(b1-3)Gal(b1-4)GlcNAc(b1-3)]GalNAc
# How it was run: as §1
# [5] = target: GlcNAc(b1-3)Gal(b1-4)GlcNAc(b1-6)[Gal(b1-3)]GalNAc
# How it was run: as §1
# [6] = target: GlcNAc(b1-3)Gal(b1-4)GlcNAc(b1-6)[GlcNAc(b1-3)Gal(b1-3)]GalNAc
# How it was run: as §1
# [7] = target: GlcNAc(b1-3)Gal(b1-4)GlcNAc(b1-6)[GlcNAc(b1-3)]Gal(b1-4)GlcNAc
# How it was run: as §1
# GlcNAc(b1-3)GalNAc = target: GlcNAc(b1-3)GalNAc
# How it was run: as §1
# GlcNAc(b1-3)Man = target: GlcNAc(b1-3)Man
# How it was run: as §1
# [8] = target: GlcNAc(b1-3)[GlcNAc(b1-4)][GlcNAc(b1-6)]GlcNAc
# How it was run: as §1
# [9] = target: GlcNAc(b1-3)[GlcNAc(b1-6)]Gal(b1-4)GlcNAc
# How it was run: as §1
# [10] = target: GlcNAc(b1-3)[GlcNAc(b1-6)]GalNAc
# How it was run: as §1
# [11] = target: GlcNAc(b1-4)Gal(b1-4)GlcNAc
# How it was run: as §1
# GlcNAc(b1-4)GlcNAc = target: GlcNAc(b1-4)GlcNAc
# How it was run: as §1
# [12] = target: GlcNAc(b1-4)GlcNAc(b1-4)GlcNAc
# How it was run: as §1
# [13] = target: GlcNAc(b1-4)GlcNAc(b1-4)GlcNAc(b1-4)GlcNAc(b1-4)GlcNAc
# How it was run: as §1
# [14] = target: GlcNAc(b1-4)GlcNAc(b1-4)GlcNAc(b1-4)GlcNAc(b1-4)GlcNAc(b1-4)GlcNAc
# How it was run: as §1
# [15] = target: GlcNAc(b1-4)[GlcNAc(b1-6)]GalNAc
# How it was run: as §1
# [16] = target: GlcNAc(b1-6)Gal(b1-4)GlcNAc
# How it was run: as §1
# GlcNAc(b1-6)GalNAc = target: GlcNAc(b1-6)GalNAc
# How it was run: as §1
# GlcNAc3Prop(b1-4)GlcNAc = target: GlcNAc3Prop(b1-4)GlcNAc
# How it was run: as §1
# [17] = target: GlcNAc6S(b1-3)Gal(b1-4)GlcNAc
# How it was run: as §1
# Kdn(a2-3)Gal(b1-3)GalNAc = target: Kdn(a2-3)Gal(b1-3)GalNAc
# How it was run: as §1
# Kdn(a2-3)Gal(b1-3)GlcNAc = target: Kdn(a2-3)Gal(b1-3)GlcNAc
# How it was run: as §1
# Kdn(a2-3)Gal(b1-4)Glc = target: Kdn(a2-3)Gal(b1-4)Glc
# How it was run: as §1
# Kdn(a2-3)Gal(b1-4)GlcNAc = target: Kdn(a2-3)Gal(b1-4)GlcNAc
# How it was run: as §1
# [18] = target: Kdn(a2-3)Gal(b1-4)[Fuc(a1-3)]GlcNAc
# How it was run: as §1
# Kdn(a2-6)Gal(b1-4)GlcNAc = target: Kdn(a2-6)Gal(b1-4)GlcNAc
# How it was run: as §1
# [19] = target: Man(a1-2)Man(a1-2)Man(a1-3)Man
# How it was run: as §1
# [20] = target: Man(a1-2)Man(a1-2)Man(a1-6)[Man(a1-3)]Man
# How it was run: as §1
# Man(a1-2)Man(a1-3)Man = target: Man(a1-2)Man(a1-3)Man
# How it was run: as §1
# [21] = target: Man(a1-2)Man(a1-3)[Man(a1-2)Man(a1-6)]Man
# How it was run: as §1
# [22] = target: Man(a1-2)Man(a1-3)[Man(a1-2)Man(a1-6)]Man(a1-6)[Man(a1-2)Man(a1-2)Man(a1-3)]Man
# How it was run: as §1
# [23] = target: Man(a1-2)Man(a1-3)[Man(a1-2)Man(a1-6)]Man(a1-6)[Man(a1-2)Man(a1-2)Man(a1-3)]Man(b1-4)GlcNAc(b1-4)GlcNAc
# How it was run: as §1
# [24] = target: Man(a1-2)Man(a1-3)[Man(a1-6)]Man(a1-6)[Man(a1-2)Man(a1-3)]Man(b1-4)GlcNAc(b1-4)GlcNAc
# How it was run: as §1
# [25] = target: Man(a1-2)Man(a1-6)[Man(a1-3)]Man(a1-6)[Man(a1-2)Man(a1-2)Man(a1-3)]Man
# How it was run: as §1
# [26] = target: Man(a1-2)Man(a1-6)[Man(a1-3)]Man(a1-6)[Man(a1-2)Man(a1-2)Man(a1-3)]Man(b1-4)GlcNAc(b1-4)GlcNAc
# How it was run: as §1
binder,measurement,setting,value
B1,glycan array binding signal (z-score),[1],0.175
same,glycan array binding signal (z-score),[2],-0.127
same,glycan array binding signal (z-score),[3],-0.49
same,glycan array binding signal (z-score),[4],-0.189
same,glycan array binding signal (z-score),[5],0.228
same,glycan array binding signal (z-score),[6],-0.475
same,glycan array binding signal (z-score),[7],-0.585
same,glycan array binding signal (z-score),GlcNAc(b1-3)GalNAc,0.312
same,glycan array binding signal (z-score),GlcNAc(b1-3)Man,0.188
same,glycan array binding signal (z-score),[8],0.095
same,glycan array binding signal (z-score),[9],0.022
same,glycan array binding signal (z-score),[10],-1.02
same,glycan array binding signal (z-score),[11],-1.05
same,glycan array binding signal (z-score),GlcNAc(b1-4)GlcNAc,0.102
same,glycan array binding signal (z-score),[12],-0.204
same,glycan array binding signal (z-score),[13],-0.707
same,glycan array binding signal (z-score),[14],0.006
same,glycan array binding signal (z-score),[15],-0.538
same,glycan array binding signal (z-score),[16],2.71
same,glycan array binding signal (z-score),GlcNAc(b1-6)GalNAc,-0.287
same,glycan array binding signal (z-score),GlcNAc3Prop(b1-4)GlcNAc,-0.321
same,glycan array binding signal (z-score),[17],0.755
same,glycan array binding signal (z-score),Kdn(a2-3)Gal(b1-3)GalNAc,1.16
same,glycan array binding signal (z-score),Kdn(a2-3)Gal(b1-3)GlcNAc,-0.742
same,glycan array binding signal (z-score),Kdn(a2-3)Gal(b1-4)Glc,-0.228
same,glycan array binding signal (z-score),Kdn(a2-3)Gal(b1-4)GlcNAc,-0.594
same,glycan array binding signal (z-score),[18],-0.555
same,glycan array binding signal (z-score),Kdn(a2-6)Gal(b1-4)GlcNAc,0.808
same,glycan array binding signal (z-score),[19],-0.772
same,glycan array binding signal (z-score),[20],-0.553
same,glycan array binding signal (z-score),Man(a1-2)Man(a1-3)Man,0.268
same,glycan array binding signal (z-score),[21],2.4
same,glycan array binding signal (z-score),[22],-0.653
same,glycan array binding signal (z-score),[23],0.213
same,glycan array binding signal (z-score),[24],-0.965
same,glycan array binding signal (z-score),[25],0.014
same,glycan array binding signal (z-score),[26],0.833

# Three consecutive entries already listed, for reference:
binder,measurement,setting,value
B1,glycan array binding signal (z-score),[21],2.4
same,glycan array binding signal (z-score),[22],-0.653
same,glycan array binding signal (z-score),[23],0.213
